Test results from PMC5249188.
No constants are given. Whether binding was seen depends on the method and setting. In cells and extracts the contact can be indirect. Some entries that bind do so weakly or less than the wild type.

The chains behind the UniProt entries cited, without tags or fusion partners.
UniProt Q62406: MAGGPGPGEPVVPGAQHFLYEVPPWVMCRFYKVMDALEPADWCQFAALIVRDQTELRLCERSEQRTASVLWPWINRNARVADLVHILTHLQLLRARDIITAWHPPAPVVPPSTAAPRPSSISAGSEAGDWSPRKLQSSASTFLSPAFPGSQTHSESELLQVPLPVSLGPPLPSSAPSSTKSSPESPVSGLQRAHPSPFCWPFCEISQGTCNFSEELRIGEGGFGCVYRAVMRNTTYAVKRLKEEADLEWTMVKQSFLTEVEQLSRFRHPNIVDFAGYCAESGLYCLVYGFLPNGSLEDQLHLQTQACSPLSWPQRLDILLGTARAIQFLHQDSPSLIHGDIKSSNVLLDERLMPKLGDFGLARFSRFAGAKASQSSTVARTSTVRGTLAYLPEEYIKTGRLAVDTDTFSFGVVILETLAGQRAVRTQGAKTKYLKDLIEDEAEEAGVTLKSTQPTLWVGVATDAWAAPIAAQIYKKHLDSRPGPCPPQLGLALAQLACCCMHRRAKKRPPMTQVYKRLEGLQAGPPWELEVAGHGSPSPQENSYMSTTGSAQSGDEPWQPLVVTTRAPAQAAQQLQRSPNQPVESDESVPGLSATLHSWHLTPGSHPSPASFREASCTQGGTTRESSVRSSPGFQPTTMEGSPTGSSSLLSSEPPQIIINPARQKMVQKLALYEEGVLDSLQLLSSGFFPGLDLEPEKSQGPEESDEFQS

Columns and labels:
[1] = molecular target: T1, tumor necrosis factor receptor associated factor-6 (mouse (endogenous in liver)) (UniProt P70196); experiment: condition: only saline-injected mice (without LPS stimulation); co-IP; liver tissue lysates of saline-injected (no LPS) NS5A-transgenic and non-transgenic mice in NET-N buffer; anti-TRAF6 antibody and protein A-Sepharose overnight; immunoblot with anti-IRAK1 and anti-TRAF6
T1 sequence: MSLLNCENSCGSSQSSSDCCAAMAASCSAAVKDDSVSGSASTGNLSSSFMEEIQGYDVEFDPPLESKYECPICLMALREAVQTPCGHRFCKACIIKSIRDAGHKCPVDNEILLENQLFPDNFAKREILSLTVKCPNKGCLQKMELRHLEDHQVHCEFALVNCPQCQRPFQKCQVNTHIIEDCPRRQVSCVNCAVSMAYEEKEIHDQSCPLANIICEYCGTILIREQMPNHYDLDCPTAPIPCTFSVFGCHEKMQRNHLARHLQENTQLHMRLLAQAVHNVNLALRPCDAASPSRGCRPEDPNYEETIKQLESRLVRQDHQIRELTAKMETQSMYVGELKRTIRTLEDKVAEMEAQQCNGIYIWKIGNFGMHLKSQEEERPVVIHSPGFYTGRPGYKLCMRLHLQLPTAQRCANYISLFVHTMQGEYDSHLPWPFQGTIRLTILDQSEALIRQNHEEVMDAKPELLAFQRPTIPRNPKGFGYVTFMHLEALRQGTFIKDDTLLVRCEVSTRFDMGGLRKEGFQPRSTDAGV

[2] = molecular target: T1, tumor necrosis factor receptor associated factor-6 (mouse (endogenous in liver)); experiment: co-IP; liver tissue lysates of LPS-injected (1 ug/g body weight, 6 h) NS5A-transgenic mice in NET-N buffer; anti-TRAF6 antibody and protein A-Sepharose overnight; immunoblot with anti-IRAK1 and anti-TRAF6
[3] = molecular target: T1, tumor necrosis factor receptor associated factor-6 (mouse (endogenous in liver)); experiment: co-IP; liver tissue lysates of LPS-injected (1 ug/g body weight, 6 h) non-transgenic mice in NET-N buffer (20 mM Tris-HCl pH 8.0, 100 mM NaCl, 1 mM EDTA, 0.5% NP-40); anti-TRAF6 antibody and protein A-Sepharose overnight; immunoblot with anti-IRAK1 and anti-TRAF6

interleukin-1 receptor-associated kinase-1 (from UniProt Q62406 1-710)
binding [1]: no binding | binding [2]: binds weakly | binding [3]: binds
